From publication PMC2705503
These are yes or no findings as the source states them, for the method shown. Some binding calls cover weakened binding; strength is not graded here.

Protein sequences, listed by entry. Tags and fused reporters are not part of them. Residues count along the entry.
UniProt P78560, residues 94-199: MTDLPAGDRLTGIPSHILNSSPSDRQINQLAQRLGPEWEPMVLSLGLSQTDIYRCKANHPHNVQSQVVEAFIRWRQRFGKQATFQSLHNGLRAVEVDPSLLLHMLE

Legend:
[1] = target: RAIDD Death-Domain (DD) (94-199) (human) (UniProt P78560); assay: SEC; RAIDD DD alone; Superdex 200 10/30, 20 mM Tris-HCl pH 8.0, 150 mM KCl; both purified
[2] = target: T1, PIDD Death Domain (DD) (UniProt Q9HB75); assay: SEC; separately purified RAIDD DD and PIDD DD incubated 1 hr at room temperature, concentrated to 15-20 mg/mL; Superdex 200 10/30, 20 mM Tris-HCl pH 8.0, 50 mM NaCl; peak fractions checked by SDS-PAGE; both purified
T1 sequence: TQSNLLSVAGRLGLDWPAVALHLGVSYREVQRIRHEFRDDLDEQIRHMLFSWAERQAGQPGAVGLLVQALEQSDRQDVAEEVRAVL

Substance: RAIDD Death-Domain (DD) (94-199) (from UniProt P78560 94-199) (domain or fragment)
- binding [1]: no binding
- binding [2]: binds
